Laboratory results reported in PMC7162585.
These are yes or no findings as the source states them, for the method shown. In cells and extracts the contact can be indirect. Some entries that bind do so weakly or less than the wild type.

The chains behind the UniProt entries cited, without tags or fusion partners. Residues count along the entry.
UniProt P19491, residues 22-883: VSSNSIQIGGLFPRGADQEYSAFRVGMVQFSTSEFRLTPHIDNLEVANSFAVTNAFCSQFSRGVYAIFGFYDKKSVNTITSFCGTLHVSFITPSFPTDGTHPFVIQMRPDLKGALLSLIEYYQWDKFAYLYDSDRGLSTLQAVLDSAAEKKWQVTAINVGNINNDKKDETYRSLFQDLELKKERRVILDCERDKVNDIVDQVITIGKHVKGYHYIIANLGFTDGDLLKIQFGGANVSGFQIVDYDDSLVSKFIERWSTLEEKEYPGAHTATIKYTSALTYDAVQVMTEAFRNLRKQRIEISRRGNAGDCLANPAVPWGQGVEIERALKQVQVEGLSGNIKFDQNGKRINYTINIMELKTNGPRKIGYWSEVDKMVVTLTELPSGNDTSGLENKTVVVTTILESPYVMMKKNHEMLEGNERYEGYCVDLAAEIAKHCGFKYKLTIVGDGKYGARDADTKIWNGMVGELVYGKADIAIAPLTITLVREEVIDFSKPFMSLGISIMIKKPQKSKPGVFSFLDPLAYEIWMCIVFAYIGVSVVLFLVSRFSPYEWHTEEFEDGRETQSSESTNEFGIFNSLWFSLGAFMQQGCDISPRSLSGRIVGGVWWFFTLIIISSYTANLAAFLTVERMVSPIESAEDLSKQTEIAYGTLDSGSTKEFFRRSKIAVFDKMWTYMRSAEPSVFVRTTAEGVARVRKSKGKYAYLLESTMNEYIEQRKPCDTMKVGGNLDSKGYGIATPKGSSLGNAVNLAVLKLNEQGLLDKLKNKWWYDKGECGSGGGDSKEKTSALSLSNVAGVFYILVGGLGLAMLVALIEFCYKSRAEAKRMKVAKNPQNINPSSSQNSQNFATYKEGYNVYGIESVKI

Target: GluA2 (AMPA receptor subunit) (rat (endogenous in hippocampus of Sprague-Dawley rats)) (UniProt P19491)
Experiment: co-IP; rat hippocampal tissue of epileptic rats homogenized in RIPA lysis buffer; incubated with anti-SAD-B or anti-GluA1-GluA4 antibody (rabbit IgG as control) 12 h at 4°C, protein A/G agarose beads 1.5 h at 4°C; immunoblot with anti-GluA1-GluA4 and anti-SAD-B antibodies

binding: binds
B1: Brain-specific serine/threonine-protein kinase 1 (SAD-B) (protein, UniProt B2DD29 1-778)
chain: MSSGSKEGGGGSPAYHLPHPHPHPPQHAQYVGPYRLEKTLGKGQTGLVKLGVHCITGQKVAVKIVNREKLSESVLMKVEREIAILKLIEHPHVLKLHDVYENKKYLYLVLEHVSGGELFDYLVKKGRLTPKEARKFFRQIVSALDFCHSYSICHRDLKPENLLLDEKNNIRIADFGMASLQVGDSLLETSCGSPHYACPEVIKGEKYDGRRADMWSCGVILFALLVGALPFDDDNLRQLLEKVKRGVFHMPHFIPPDCQSLLRGMIEVEPEKRLSLEQIQKHPWYLGGKHEPDPCLEPAPGRRVAMRSLPSNGELDPDVLESMASLGCFRDRERLHRELRSEEENQEKMIYYLLLDRKERYPSCEDQDLPPRNDVDPPRKRVDSPMLSRHGKRRPERKSMEVLSITDAGSGGSPVPTRRALEMAQHSQRSRSVSGASTGLSSSPLSSPRSPVFSFSPEPGVGDEARGGGSPTSKTQTLPSRGPRGGGAGEQPPPPSARSTPLPGPPGSPRSSGGTPLHSPLHTPRASPTGTPGTTPPPSPGGGVGGAAWRSRLNSIRNSFLGSPRFHRRKMQVPTAEEMSSLTPESSPELAKRSWFGNFISLDKEEQIFLVLKDKPLSSIKADIVHAFLSIPSLSHSVLSQTSFRAEYKASGGPSVFQKPVRFQVDISSSEGPEPSPRRDGSSGGGIYSVTFTLISGPSRRFKRVVETIQAQLLSTHDQPSVQALADEKNGAQTRPAGTPPRSLQPPPGRPDPDLSSSPRRGPSKDKKLLATNGTPLP
